Test results: paper PMC2814829

Biological target: T1, CED-2 in vivo (ced-2::tap construct) (C. elegans) (UniProt Q9NHC3)
T1 sequence: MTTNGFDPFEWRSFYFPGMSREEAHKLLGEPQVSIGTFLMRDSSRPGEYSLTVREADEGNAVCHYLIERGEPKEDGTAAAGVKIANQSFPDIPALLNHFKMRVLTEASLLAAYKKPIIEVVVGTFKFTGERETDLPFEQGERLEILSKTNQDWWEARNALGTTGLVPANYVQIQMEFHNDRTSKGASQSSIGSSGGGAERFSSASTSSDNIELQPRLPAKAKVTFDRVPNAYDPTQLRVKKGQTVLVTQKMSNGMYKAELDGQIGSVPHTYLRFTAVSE
Test: affinity purification with mass spectrometry; proteomics efforts in vivo (C. elegans); methods in Text S1

binding: no binding
B1: APR-1 in vivo (C. elegans) (protein, UniProt Q21227 1-1188)
chain: MSSSSSDENETTIHRTGSNTGGSGIYSQPRAGSSKRTSNVRHDVSDVDDEEEHYARFREDTAIEVDDAITVLLSSLHFEHKRDIVPTDEDDNKLRELHEKIFALITSESDVNRKRRLKKALPASNCVREQVYYLRRKPSTPPASYYHRLNAALHTIVKESFGEEYRKVATVLGLVEALAEVLILEVHTFGINETNPGEHRNIRKLIANALTNLTYGQIHSKRRLCSYDGFIRCVVRIVIESPNITQVYAGLIRNLSWNADSGMSEALQPTVHALSIAAVHAHTHRFDVTATLSALWNLAGHSVENKRTICDTPNCLKVLASLLSPDARFTSLVDSATGILKYVSQYLANTSTHLELRSLLITRMLTLLKSASFTCVTNTLGAIANLIVKDPHMQQMIRQDMAAVQQLNVLRNSNRDDIRTAVKSVLNTLNQPCSHRYGDMSHSVGGGATGMQMLSEPQLQMQTSHHAYHGTASPRLLSLRATRASPGKYIQPQAQQQLIQTPQVDQRSSSLPRHFAVQRNGFVMAQSYNQQMDQHQQQQMIYQLQQQQQIMFQTEDQAQMEHHQQIMYLQQQQQQFHQIQQQQQMQKAQEADPVPPTDDDLDIPTSTVMGTRSNSERSLGSMNPGSVMTNWNSSLDTAANSSRALSPVSYNDIPASPTMCAQVFNLPKSTESEHHQLTSQQQNTTHYSSGSANTMTRSDGATTVPMDNIITPTYAILNPILVHEQTPNGTVPRKTSEELDSPDDVLPGPSLEEEEGDYAIIGGAAQKTDDELLTRSIQSEMPTSSSTPKMKVSPRLNGFFSPTQKTTSSPAWSHPDTSPIPKSSSHRTQPNRRQDASDADRLLMESIMSEMPKSRIISPRLAGTQQYLEPEPERRSHSKNEEADRRDAFTASHEPSDHNGIDVARGSDWSPQQQLHRMESLESQASSEDSFGLTAEEPNSSTSGAAANTMRFDDEIDASLPMDCVDDDDYDYTYDHFEDYEDEEDPDATQFDDGVDAQLTIDCSMISSGSGSSQRNETTTTSRDSKALATSTPKGSASSLPGVRQATRVSTNGKSRLPVPKTNGSLVDKNPKPIIASRRPRLPPKPTLLKDKHYPEEDSIENQTRDDTIYVNAPVVEAEQERIYMNALKQQKNIEQSPSIGNGSPIAKSAIVTPYNYQKPPFTGRNNGEMSNEKSVTPNPKQMLVTIV

Results are given in words; binding and its absence hold for the method and conditions named. Binding seen in cells or lysates may run through a third protein. A yes stands for co-enrichment or nearness to the bait. Other partners may have been found. No binding means not detected with the bait.
